# Measured values published in patent publication US12357608B2, “Methods and compositions utilizing RRx-001 combination therapy for radioprotection” (priority 2018, dated 2025).
# Legend:
# bone marrow = assay: Histopathological analysis of bone marrow sternebrae (cellularity grade, megakaryocytes) after sublethal TBI or sham irradiation; type: in vivo, mice; settings: sham-irradiated
# Protocol: (§1) To determine the pathophysiological effects of RRx-001 on hematopoietic protection in mice, CD2F1 male mice were treated with 10 mg/kg RRx-001 or the vehicle control 24 hours prior to a sublethal dose of TBI (7 Gy at 0.6 Gy/min using High-level Cobalt-60) or sham irradiation (day 0) according to the table below.
# (§2) CD2F1 male mice (n=3/group) were divided into 4 experimental groups: 1) irradiation+vehicle, 2) irradiation+RRx-001, 3) sham-irradiation+vehicle and 4) sham-irradiation+RRx-001. Either 10 mg/kg RRx-001 or the vehicle control were IP injected 24 hours prior to either irradiation or sham-irradiation (day 0). On days 2, 7, 14, 21, and 28 post-irradiation (day 0) mice were humanely euthanized. Blood, bone marrow, and sternebrae were then collected. This experiment was performed in duplicate for a total of n=6 mice/group/time point.
# Sternebrae from euthanized mice (n=6/group/time point) were collected on days 2, 7, 14, 21 and 28 post-irradiation. Sternebrae were fixed in 10% zinc-buffered formalin for at least 24 hours and up to 7 days. Fixed sternebrae were decalcified for 3 hr in 12-18% sodium EDTA (pH 7.4-7.5) and specimens dehydrated using graded ethanol concentrations and embedded in paraffin. Longitudinal 4 μm sections were stained with regular hematoxylin and eosin. […] One of the pathologist scored all the samples blindly. Bone marrow was evaluated in situ within sternebrae and graded (Grade 1: <10%; Grade 2: 11-30%; Grade 3: 31-60%; Grade 4: 61-89%; Grade 5: >90%) for total cellularity. Megakaryocytes were also quantified based on the average per 10 high power fields (HPF) at 400× magnification using a BX43 or BX53 microscope (Olympus, Minneapolis, MN). […]
# To determine the effect of RRx-001 on bone marrow, a histopathological analysis of bone marrow sternebrae was performed and the cellularity, as reported by grade (grade 1: <10%; grade 2: 11-30%; grade 3: 31-60%; grade 4: 61-89%; grade 5: ≥90% cellularity), and megakaryocyte numbers (averaged per 10 high-powered fields; HPF) were ascertained by two pathologists, one of which scored all the samples blindly (TAS, WEC).
# CD2F1 male mice = assay: Complete blood count with differential and reticulocytes after sublethal TBI or sham irradiation; type: in vivo; settings: sham-irradiated, 10 mg/kg; longitudinal mixed model repeated measures
# Protocol: as §1, §2
# Post-irradiation whole blood was obtained by terminal cardiocentesis. Blood samples were immediately transferred into EDTA tubes (Sarstedt Inc., Newton, NC) and gently rotated until the time of analysis. The tubes were analyzed for a complete blood count with differential and reticulocytes using the ADVIA 2120 (Siemens Medical Solutions Diagnostics, Dublin, Ireland), and Microsoft software version 5.9 (Microsoft Corp., Redmond, WA) to generate the data.
# Blood parameters were compared between treatment groups using an analysis of variance (ANOVA). […]
structure (smiles),measurement,setting,value
"O=C(CBr)N1CC([N+](=O)[O-])([N+](=O)[O-])C1 [RRx-001, 2-bromo-1-(3,3-dinitroazetidin-1-yl)ethan-1-one]",bone marrow cellularity grade,"bone marrow; 10 mg/kg IP, whole study",5 (grade 5: ≥90% cellularity)
same,overall cellularity of the bone marrow,"bone marrow; 10 mg/kg IP, whole study (days 2-28)",≥ 90%
same,number of megakaryocytes,"bone marrow; 10 mg/kg, day 14, vs vehicle control",significantly higher than the vehicle control
same,"platelets, overall mean over time (standard error)",CD2F1 male mice,1067.73 (32.26)
